# Measurements taken from the M2OR odorant receptor database.
# Protein sequences, listed by entry. Tags and fused reporters are not part of them. Chains listed by the source or under a name are the forms on record and can include a tag or linker.
# UniProt Q8VGK6, as listed by the source: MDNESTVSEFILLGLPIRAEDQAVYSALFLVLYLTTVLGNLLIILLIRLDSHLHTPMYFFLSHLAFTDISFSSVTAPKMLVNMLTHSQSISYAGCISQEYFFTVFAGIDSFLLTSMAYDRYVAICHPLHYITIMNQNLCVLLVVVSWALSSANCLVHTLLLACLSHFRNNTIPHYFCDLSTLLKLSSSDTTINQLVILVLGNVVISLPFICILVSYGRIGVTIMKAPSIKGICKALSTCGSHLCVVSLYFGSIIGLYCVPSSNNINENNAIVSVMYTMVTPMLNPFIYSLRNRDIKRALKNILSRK
# The list shows a part of the results, in another mix than the full data. The calls were merged from several studies; some rest on single wells.
# How the values were obtained:
# Conditions in all cases: stereoisomer not certain
# [1] = target: T1, UniProt Q8VGH1
# T1 sequence (whole entry): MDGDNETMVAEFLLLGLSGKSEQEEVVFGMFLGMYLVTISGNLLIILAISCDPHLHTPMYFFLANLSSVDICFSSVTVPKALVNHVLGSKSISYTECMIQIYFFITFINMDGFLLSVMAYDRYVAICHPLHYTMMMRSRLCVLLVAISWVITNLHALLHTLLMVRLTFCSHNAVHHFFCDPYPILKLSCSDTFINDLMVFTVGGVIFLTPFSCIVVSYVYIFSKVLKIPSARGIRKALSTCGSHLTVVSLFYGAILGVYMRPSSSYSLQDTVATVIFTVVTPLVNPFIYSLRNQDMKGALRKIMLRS
# In short: (§1)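 Whether a receptor–molecule pair is responsive (active) rests on the original authors' judgment that its measured signal was statistically different from baseline. Pairs without that judgment are non-responsive (inactive). Sources used varied assay methods, commonly transient luciferase assays in mammalian cell lines.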
# [2] = target: T2, UniProt Q8VGJ1
# T2 sequence (whole entry): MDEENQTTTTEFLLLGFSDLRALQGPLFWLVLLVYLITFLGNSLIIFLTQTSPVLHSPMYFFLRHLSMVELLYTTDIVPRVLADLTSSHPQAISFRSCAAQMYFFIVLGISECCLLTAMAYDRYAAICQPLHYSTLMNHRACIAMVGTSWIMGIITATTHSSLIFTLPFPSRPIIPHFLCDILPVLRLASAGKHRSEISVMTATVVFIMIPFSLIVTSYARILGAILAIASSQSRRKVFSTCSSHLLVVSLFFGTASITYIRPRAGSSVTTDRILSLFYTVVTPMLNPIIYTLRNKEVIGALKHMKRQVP
# In short: as §1
# [3] = target: T3, UniProt Q8VGJ3
# T3 sequence (whole entry): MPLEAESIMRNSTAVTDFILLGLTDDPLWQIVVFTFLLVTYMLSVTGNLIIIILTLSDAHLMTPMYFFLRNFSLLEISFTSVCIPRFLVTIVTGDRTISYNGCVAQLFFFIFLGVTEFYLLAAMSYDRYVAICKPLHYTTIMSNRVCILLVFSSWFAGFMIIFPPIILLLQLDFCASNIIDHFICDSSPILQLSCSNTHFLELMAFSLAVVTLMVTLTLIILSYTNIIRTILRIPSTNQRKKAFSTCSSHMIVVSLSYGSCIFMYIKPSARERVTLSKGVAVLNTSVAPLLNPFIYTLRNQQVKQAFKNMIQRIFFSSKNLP
# In short: as §1
# [4] = target: T4, UniProt Q8VGJ5
# T4 sequence (whole entry): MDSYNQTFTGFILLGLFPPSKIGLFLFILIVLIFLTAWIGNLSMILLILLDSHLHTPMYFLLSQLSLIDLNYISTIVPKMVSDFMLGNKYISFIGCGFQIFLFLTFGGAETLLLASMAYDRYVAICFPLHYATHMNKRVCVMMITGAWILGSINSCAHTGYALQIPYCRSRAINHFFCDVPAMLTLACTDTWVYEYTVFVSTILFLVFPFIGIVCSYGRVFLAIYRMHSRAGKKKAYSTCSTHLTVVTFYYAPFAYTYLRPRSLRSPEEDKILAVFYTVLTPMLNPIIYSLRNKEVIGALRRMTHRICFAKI
# In short: as §1
# [5] = target: UniProt Q8VGK6
# In short: as §1
# [6] = target: T5, UniProt Q8VGL0
# T5 sequence (whole entry): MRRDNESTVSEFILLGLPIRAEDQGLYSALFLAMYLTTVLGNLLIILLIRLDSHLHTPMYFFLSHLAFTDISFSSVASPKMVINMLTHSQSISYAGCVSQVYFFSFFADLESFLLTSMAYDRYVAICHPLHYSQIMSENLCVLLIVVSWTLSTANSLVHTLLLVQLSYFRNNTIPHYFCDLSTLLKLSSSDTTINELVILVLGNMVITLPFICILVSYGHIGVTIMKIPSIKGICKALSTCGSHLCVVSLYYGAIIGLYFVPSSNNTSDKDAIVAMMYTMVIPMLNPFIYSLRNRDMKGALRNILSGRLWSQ
# In short: as §1
# [7] = target: T6, UniProt Q8VGL7
# T6 sequence (whole entry): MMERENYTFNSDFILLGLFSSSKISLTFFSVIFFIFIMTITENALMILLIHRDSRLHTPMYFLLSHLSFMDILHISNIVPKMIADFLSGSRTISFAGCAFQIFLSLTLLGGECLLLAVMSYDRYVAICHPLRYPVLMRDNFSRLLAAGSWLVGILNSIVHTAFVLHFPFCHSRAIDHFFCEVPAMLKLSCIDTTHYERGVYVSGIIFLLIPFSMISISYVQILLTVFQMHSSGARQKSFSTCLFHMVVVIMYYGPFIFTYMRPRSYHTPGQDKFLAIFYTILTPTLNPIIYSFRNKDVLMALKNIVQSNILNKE
# In short: as §1
# [8] = target: T7, UniProt Q8VGM2
# T7 sequence (whole entry): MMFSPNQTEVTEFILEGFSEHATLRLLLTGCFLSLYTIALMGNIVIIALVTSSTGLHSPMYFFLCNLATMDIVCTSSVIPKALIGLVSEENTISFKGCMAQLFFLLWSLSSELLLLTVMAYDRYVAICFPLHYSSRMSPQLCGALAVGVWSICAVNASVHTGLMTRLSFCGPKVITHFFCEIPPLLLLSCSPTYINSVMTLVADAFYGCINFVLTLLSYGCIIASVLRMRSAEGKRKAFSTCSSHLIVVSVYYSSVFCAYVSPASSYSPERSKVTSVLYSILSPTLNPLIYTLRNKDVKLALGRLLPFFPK
# In short: as §1
# [9] = target: T8, UniProt Q8VGP6
# T8 sequence (whole entry): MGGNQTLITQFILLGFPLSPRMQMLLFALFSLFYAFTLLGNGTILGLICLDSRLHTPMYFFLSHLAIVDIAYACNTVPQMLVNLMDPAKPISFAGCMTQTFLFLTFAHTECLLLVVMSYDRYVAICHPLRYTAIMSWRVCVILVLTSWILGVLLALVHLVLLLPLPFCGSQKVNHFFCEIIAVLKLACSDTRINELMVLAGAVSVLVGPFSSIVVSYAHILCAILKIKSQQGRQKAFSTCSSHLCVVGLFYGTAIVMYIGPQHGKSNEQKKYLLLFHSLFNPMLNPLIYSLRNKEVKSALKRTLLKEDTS
# In short: as §1
# [10] = target: T9, UniProt Q8VGQ3
# T9 sequence (whole entry): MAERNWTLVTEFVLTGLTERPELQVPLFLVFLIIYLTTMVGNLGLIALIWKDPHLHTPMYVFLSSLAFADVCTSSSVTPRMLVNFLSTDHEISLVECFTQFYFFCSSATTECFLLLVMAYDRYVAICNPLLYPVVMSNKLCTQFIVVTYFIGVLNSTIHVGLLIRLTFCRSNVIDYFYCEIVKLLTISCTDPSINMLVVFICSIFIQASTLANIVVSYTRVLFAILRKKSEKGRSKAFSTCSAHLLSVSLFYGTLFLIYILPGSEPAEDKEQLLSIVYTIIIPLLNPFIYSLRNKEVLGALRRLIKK
# In short: as §1
# 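Further: active if original authors judged signal statistically different from baseline.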
smiles,measurement,setting,value
CC(=O)c1ccccc1,odorant receptor agonist call,[1],active
same,odorant receptor agonist call,[2],inactive
same,odorant receptor agonist call,[3],inactive
same,odorant receptor agonist call,[4],active
same,odorant receptor agonist call,[5],active
same,odorant receptor agonist call,[6],inactive
same,odorant receptor agonist call,[7],inactive
same,odorant receptor agonist call,[8],inactive
same,odorant receptor agonist call,[9],inactive
same,odorant receptor agonist call,[10],inactive
